From patent US20090042839A1, “Crystalline forms of ibandronate sodium” (priority 2007, published 2009)
Some entries share one result that the patent states for a list of compounds.

Assay: Stability of crystalline forms of ibandronate sodium when stored for 3 months at room temperature (polymorphic form by XRD)
Format: physicochemical
Conditions: at a temperature of about 15° C. to about 30° C., as described in Example 17
Method: The x-ray powder diffraction was performed on Scintag X-ray powder diffractometer model X'TRA with a solid state detector at room temperature. Copper radiation of 1.5418 Å was used. The sample holder was a round standard aluminum sample holder with rough zero background. The scanning parameters were range: 2-40 degrees two-theta; scan mode: continuous scan; step size: 0.05 degrees; and at a rate of 5 degrees/minute. […]

CCCCCN(C)CCC(O)(P(=O)([O-])O)P(=O)(O)O.[Na+] [Form Alpha, (1-hydroxy-3-(N-methyl-N-pentylamino)propylidene) bisphosphonic acid monosodium salt]
time for which the crystalline form is stable: more than 3 months

CCCCCN(C)CCC(O)(P(=O)([O-])O)P(=O)(O)O.[Na+] [Form C2, (1-hydroxy-3-(N-methyl-N-pentylamino)propylidene) bisphosphonic acid monosodium salt]
time for which the crystalline form is stable: more than 3 months

CCCCCN(C)CCC(O)(P(=O)([O-])O)P(=O)(O)O.[Na+] [Form C, (1-hydroxy-3-(N-methyl-N-pentylamino)propylidene) bisphosphonic acid monosodium salt, reference compound]
time for which the crystalline form is stable: more than 3 months

CCCCCN(C)CCC(O)(P(=O)([O-])O)P(=O)(O)O.[Na+] [Form n-butanolate, (1-hydroxy-3-(N-methyl-N-pentylamino)propylidene) bisphosphonic acid monosodium salt]
time for which the crystalline form is stable: more than 3 months
